{
  "source": "PubChem BioAssay AID602313",
  "about": "(National Center for Advancing Translational Sciences (NCATS), 2012)",
  "note": "Screen size: about 390,000 compounds; about 760 (0.19%) were called active. The shares of active, inactive and inconclusive entries below differ from those in the screen. The call rests on the fitted dose curve; in most records, active means well fitted inhibition curve with a large enough effect; inconclusive means small, poorly fitted or top-dose-only effect; inactive means flat fitted curve, though single readings scatter. A potency beside an inconclusive call is a rough fit, not a confirmed value. Potency means the concentration at half of the fitted maximal effect.",
  "data": [
    {"assay": "qHTS for Inhibitors of Vif-A3F Interactions: qHTS; further: nearly all actives have a fitted effect of over 65% in size", "details": "HeLa A3F-eYFP + Vif (tagged APOBEC3F with the HIV-1 protein that degrades it), YFP fluorescence increase; series mostly up to 46.1 µM", "outline": "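Fluorescence increase (Ex 488/Em 500-530) after overnight compound treatment at 37 deg C flags inhibition of Vif-driven A3F-eYFP loss in stable HeLa A3F-eYFP/Vif cells seeded overnight beforehand.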", "values": [
      {"smiles": "CN(C)CCN(C(=O)c1cc(Cl)sc1Cl)c1nc2ccc(F)cc2s1", "Potency": "inconclusive: 5.62 µM [inhibitor, single point]"},
      {"smiles": "Cc1cccc(-n2c(O)c(/C=C3/C(c4ccccc4)=Nc4ccccc43)c(=O)[nH]c2=O)c1", "Potency": "inconclusive: 10 µM [inhibitor, partial curve, poor fit]"},
      {"smiles": "Cc1ccccc1N1C(=O)NC(=O)/C(=C/c2ccc(N3CCOCC3)o2)C1=O", "Potency": "inconclusive: 35.5 µM [inhibitor, single point]"},
      {"smiles": "CCOc1cc(/C=C2\\C(=O)NC(=O)N(CCc3ccc(F)cc3)C2=O)ccc1O", "Potency": "inconclusive: 12.6 µM [inhibitor, single point]"},
      {"smiles": "N#C/C(=C\\c1ccc([N+](=O)[O-])cc1)c1nc(C2CC2)cs1", "Potency": "inconclusive: 12.6 µM [inhibitor, partial curve, poor fit]"},
      {"smiles": "CCOC(=O)c1cc(CC)sc1/N=C/c1c(O)[nH]c(=S)[nH]c1=O", "Potency": "inconclusive: 17.8 µM [inhibitor, partial curve, poor fit]"},
      {"smiles": "O=c1[nH]c(=O)n(Cc2ccccc2Cl)c(O)c1/C=C1/C=CC=N1", "Potency": "active: 8.91 µM"},
      {"smiles": "CCOc1ccccc1-n1c(O)c(C=Nc2ccc(N(CC)CC)cc2)c(=O)[nH]c1=O", "Potency": "inconclusive: 35.5 µM [inhibitor, single point]"},
      {"smiles": "Cc1ccsc1/C=C1\\C(=O)NC(=S)N(C)C1=O", "Potency": "inconclusive: 3.16 µM [inhibitor, single point]"},
      {"smiles": "Nc1c(C(=O)NCc2ccco2)c2nc3ccccc3nc2n1CCN1CCCCC1", "Potency": "inconclusive: 25.1 µM [inhibitor, single point]"},
      {"smiles": "NC(=O)c1cc(N2CC2)c([N+](=O)[O-])cc1[N+](=O)[O-]", "Potency": "inactive"},
      {"smiles": "CC(=O)[C@H]1CCC2C3CC[C@H]4C[C@@H](O)CC[C@]4(C)C3CC[C@@]21C", "note": "(stereo partly drawn)", "Potency": "inconclusive: 3.16 µM [inhibitor, single point]"},
      {"smiles": "CCn1c(NN=O)nc2ccccc21", "Potency": "active: 11.2 µM"},
      {"smiles": "O=C(CNC(=O)c1ccccc1)NCC(=O)OCC(=O)c1ccc([N+](=O)[O-])cc1", "Potency": "inconclusive: 35.5 µM [inhibitor, single point]"},
      {"smiles": "CN1/C(=C\\C=C2C(=O)NC(=O)NC2=O)C(C)(C)c2ccccc21", "Potency": "active: 11.2 µM"},
      {"smiles": "O=C1NC(=O)N(Cc2ccccc2)C(=O)/C1=C/c1cnc(-c2ccccc2)nc1", "Potency": "inconclusive: 35.5 µM [inhibitor, single point]"},
      {"smiles": "CC(=O)C1C(N2CC2)CC2C3CCC4=CC(=O)CCC4(C)C3CCC21C", "note": "(stereo not drawn)", "Potency": "inactive"},
      {"smiles": "CCOc1cc(C2NCc3ccccc3-n3cccc32)ccc1O", "note": "(stereo not drawn)", "Potency": "inactive"}
    ]}
  ]
}
